The filed quantity is “Percent Effect” (%). The record does not define 0% and 100%; most values in the screen are far below 50% and negative numbers occur (in some assays of this library far below -100). This is an unselected part of the compounds tested. Two or more numbers in one place are separate tests of the same structure; such repeats can differ widely.

Mtb cholesterol medium: 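Growth of Mycobacterium tuberculosis over 4 days (cholesterol / DPPC medium with tyloxapol); the read-out is not stated. Tested at 50 µM. The record gives no direction; compounds that gave an IC50 in retests scored well above the rest, so higher reads as more growth inhibition. Size under these conditions: about 69,000 compounds, about 370 of them at 50% or above in at least one test.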
Mtb glucose medium: 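Whole-cell growth test on Mycobacterium tuberculosis, read after 3 days in glucose-containing 7H9 medium; the read-out is not stated. Concentration: 50 µM. Direction is inferred from retests: higher values go with more growth inhibition. Size under these conditions: about 69,000 compounds, about 760 of them at 50% or above in at least one test.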

{"compound": "Cc1ccccc1C(O)c1ccncc1", "stereo": "centres unmarked", "Mtb cholesterol medium": 7.004, "Mtb glucose medium": "-1.193 and 7.921"}
{"compound": "CCOc1ccccc1OCC(=O)NCc1ncc(C)c(OC)c1C", "Mtb cholesterol medium": -24.91, "Mtb glucose medium": -18.56}
{"compound": "CCN(CC)c1ncnc2c1CCN(C(=O)Cc1ccccn1)CC2.O=C(O)C(F)(F)F.O=C(O)C(F)(F)F", "Mtb cholesterol medium": -19.09, "Mtb glucose medium": -3.848}
{"compound": "Cc1ccc(NCCCNc2nccc(-c3cn(C)nc3C)n2)nc1", "Mtb cholesterol medium": -30.86, "Mtb glucose medium": -13.35}
{"compound": "CCn1c(CC2CCN(C(=O)C3CNCCO3)CC2)nn(C)c1=O", "stereo": "centres unmarked", "Mtb cholesterol medium": 8.114, "Mtb glucose medium": 4.1}
{"compound": "Cc1cc(C2CCCN(C(=O)c3ccc(OCC4CC4)nc3)C2)n[nH]1", "stereo": "centres unmarked", "Mtb cholesterol medium": -30.18, "Mtb glucose medium": "-27.42 and 9.69"}
{"compound": "Cn1cnc2cc(NC(=O)c3n[nH]c4c3CCC4)ccc21", "Mtb cholesterol medium": 4.786, "Mtb glucose medium": "-3.868 and -3.899"}
{"compound": "Cc1ccc(C(=O)NC(C)Cn2cccn2)c(=O)[nH]1", "stereo": "centres unmarked", "Mtb cholesterol medium": -19.52, "Mtb glucose medium": -12.81}
{"compound": "Cc1cccc(CN2CCCC3(Cc4ccccc4CNC3=O)C2)n1", "stereo": "centres unmarked", "Mtb cholesterol medium": -8.856, "Mtb glucose medium": 6.331}
{"compound": "Cn1cc(C(=O)CC2CCCN2C(=O)c2ccc3[nH]ncc3c2)cn1", "stereo": "centres unmarked", "Mtb cholesterol medium": -20.2, "Mtb glucose medium": "-1.235 and -15.99"}
{"compound": "O=C(CS(=O)(=O)Cc1cc(Cl)c2c(c1)OCO2)N1CCCCCC1", "Mtb cholesterol medium": 1.951, "Mtb glucose medium": -10.44}
{"compound": "[H][C@@]12CN(C(=O)NCC)C[C@]1([H])OCC(=O)N2CC1CCCCC1", "Mtb cholesterol medium": -19.84, "Mtb glucose medium": "-1.637 and -8.313"}
{"compound": "Cl.Fc1ccccc1OCCc1cc(C2CNCCO2)n[nH]1", "stereo": "centres unmarked", "Mtb cholesterol medium": 22.15, "Mtb glucose medium": 18.13}
{"compound": "COC(=O)NC1(C(=O)Nc2ccc(-c3cc[nH]n3)cc2)CCCC1", "Mtb cholesterol medium": 23.52, "Mtb glucose medium": -5.607}
{"compound": "CN(CCc1cnn(C)c1)C(=O)C(c1ccccc1F)N(C)C", "stereo": "centres unmarked", "Mtb cholesterol medium": -12.48, "Mtb glucose medium": -10.46}
{"compound": "Cc1ccc(=O)n(CC2(O)CCN(Cc3ccoc3)CC2)n1", "Mtb cholesterol medium": 0.4752, "Mtb glucose medium": 30.17}
{"compound": "Cc1nnc(CN2CCC(Oc3ccc(F)cc3)CC2)o1", "Mtb cholesterol medium": -11.19, "Mtb glucose medium": "0.9496 and -1.673"}
{"compound": "Cc1nc(C2CCCN(C(=O)c3csc(C)n3)C2)no1", "stereo": "centres unmarked", "Mtb cholesterol medium": 20.86, "Mtb glucose medium": "16.69 and -2.796"}
{"compound": "CC(NC(=O)NC1CCN(Cc2ccncc2)CC1)c1cccc(F)c1", "stereo": "centres unmarked", "Mtb cholesterol medium": 9.721, "Mtb glucose medium": "5.749 and -25.63"}
{"compound": "CCN(CCCNC(=O)Nc1ccccc1C(C)C)S(C)(=O)=O", "Mtb cholesterol medium": 12.3, "Mtb glucose medium": 15.64}
{"compound": "NS(=O)(=O)N1CCc2ccc(NC(=O)CCc3ccncc3)cc21", "Mtb cholesterol medium": 3.491, "Mtb glucose medium": "-5.484 and 4.049"}
{"compound": "CC(C)C(C(=O)N1CCCN(c2nccs2)CC1)n1cncn1", "stereo": "centres unmarked", "Mtb cholesterol medium": -4.267, "Mtb glucose medium": "-3.377 and -57.65"}
{"compound": "CCc1cc(N(C)Cc2ccno2)n2nc(C)c(C)c2n1", "Mtb cholesterol medium": 23.22, "Mtb glucose medium": 10.4}
{"compound": "COc1ccc(CN2CCC=C(C(C)NC(C)=O)C2)cc1", "stereo": "centres unmarked", "Mtb cholesterol medium": 11.86, "Mtb glucose medium": 5.767}
{"compound": "Cc1[nH]c2nc(CNc3cccc(Cl)c3)nn2c(=O)c1C", "Mtb cholesterol medium": 8.827, "Mtb glucose medium": 21.75}
{"compound": "CC(C)N1CCC(Cc2cncc(-c3ccccc3C(=O)O)n2)C1", "stereo": "centres unmarked", "Mtb cholesterol medium": 9.033, "Mtb glucose medium": 16.83}
{"compound": "COCCN(Cc1ccoc1)C(=O)c1ccccc1Cl", "Mtb cholesterol medium": -10.62, "Mtb glucose medium": 5.047}
{"compound": "O=C(O)CC(O)(CC(=O)O)C(=O)O.c1cncc(-c2nccc(CN3CCCC3)n2)c1", "Mtb cholesterol medium": -30.66, "Mtb glucose medium": -24.47}
{"compound": "CN(C(=O)C1CCOCC1)[C@@H]1CCC[C@@H](N2CCOCC2)[C@@H]1O", "Mtb cholesterol medium": -6.501, "Mtb glucose medium": 12.23}
{"compound": "CN(C)C(C(=O)N1CCCN(C(=O)C2CCC2)CC1)c1ccccc1F", "stereo": "centres unmarked", "Mtb cholesterol medium": -11.44, "Mtb glucose medium": 10.08}
{"compound": "Cc1noc(C)c1CN1CC2(CCN(Cc3c[nH]cn3)CC2)CC1=O", "Mtb cholesterol medium": -42.1, "Mtb glucose medium": -24.39}
{"compound": "[H][C@]12CC[C@]([H])(CC(=O)NC1)N2C(=O)Cc1ccsc1", "Mtb cholesterol medium": -12.88, "Mtb glucose medium": "-16.46 and -2.25"}
{"compound": "CCN(CC1CCOC1)C(=O)Nc1ccc(N2CCOCC2)nc1", "stereo": "centres unmarked", "Mtb cholesterol medium": -3.64, "Mtb glucose medium": -26.37}
{"compound": "O=C(O)C(F)(F)F.[H][C@@]12COC[C@]1(COc1cccnc1)CN(C(=O)c1cc(C3CC3)on1)C2", "Mtb cholesterol medium": -0.2781, "Mtb glucose medium": 11.76}
{"compound": "N#Cc1ccc(C(=O)N2CC(c3nc(-c4ncccn4)no3)C2)cc1", "Mtb cholesterol medium": 1.535, "Mtb glucose medium": "-1.624 and 25.89"}
{"compound": "NS(=O)(=O)c1cnc(NCC2(c3cccc(F)c3)CCOCC2)s1", "Mtb cholesterol medium": -13.29, "Mtb glucose medium": "3.111 and 13.41"}
{"compound": "Cl.Cl.O[C@@H]1C[C@@](CNCC2CCCC2)(COc2cccnc2)C[C@@H]1O", "Mtb cholesterol medium": -20.44, "Mtb glucose medium": "1.445 and -3.503"}
{"compound": "CN(CCC(O)c1ccccc1)c1cc(N2CCOCC2)ncn1", "stereo": "centres unmarked", "Mtb cholesterol medium": 2.415, "Mtb glucose medium": "21.02 and 7.444"}
{"compound": "Cc1ccc(C)c(CC(=O)NC2CCS(=O)(=O)CC2)c1", "Mtb cholesterol medium": 21.83, "Mtb glucose medium": "-30.98 and -2.7"}
{"compound": "CN(CCCNC(=O)NCc1ccncc1)CC(F)(F)F", "Mtb cholesterol medium": "-6.908 and 29.47", "Mtb glucose medium": 3.566}
{"compound": "CC(C)c1nnc(NCc2ccsc2)o1", "Mtb cholesterol medium": 2.025, "Mtb glucose medium": 16.23}
{"compound": "Cn1cccc1CN1CCC2(CC1)CN(c1ccccc1)C(=O)CO2.O=C(O)C(F)(F)F", "Mtb cholesterol medium": 17.66, "Mtb glucose medium": 6.812}

The first 5 entries again:

compound,Mtb cholesterol medium,Mtb glucose medium
Cc1ccccc1C(O)c1ccncc1 (centres unmarked),7.004%,-1.193% and 7.921%
CCOc1ccccc1OCC(=O)NCc1ncc(C)c(OC)c1C,-24.91%,-18.56%
CCN(CC)c1ncnc2c1CCN(C(=O)Cc1ccccn1)CC2.O=C(O)C(F)(F)F.O=C(O)C(F)(F)F,-19.09%,-3.848%
Cc1ccc(NCCCNc2nccc(-c3cn(C)nc3C)n2)nc1,-30.86%,-13.35%
CCn1c(CC2CCN(C(=O)C3CNCCO3)CC2)nn(C)c1=O (centres unmarked),8.114%,4.1%

Source: ChEMBL document CHEMBL3988442, “University of Dundee, Small-Polar-MMV Screening Library” (2021).